Assay results reported in patent EP1124847B1, “LHRH ANALOGUES FOR THE TREATMENT OF OSTEOPOROSIS” (Ferring B.V., priority 1998, dated 2004).
Part of at least one peptide drawing is inferred or uncertain, most often the ends. Where a SMILES comes first, the peptide text is derived from it. [ ]: non-standard residue; d: D form. pGlu = O=C1CC[C@@H](C(=O)O)N1

Experiment: Serum calcium in the ovariectomised rat (colorimetric assay, day 28)
Assay type: in vivo, Sprague Dawley rats
Details: ovariectomised rats
Protocol: • (a) Female adult (8 weeks old, 200-215g) Sprague Dawley rats were bilaterally ovariectomised (OVX). Animals were kept for 4 weeks […] before commencing treatment. -Purina rat chow (1.00% calcium, 0.61% phosphorous) and water were provided ad libitum. Each study consisted of 6 weight-matched groups (n = 8/group). • (b) Treatment started 4 weeks post-OVX. After 4 weeks, a baseline control OVX group was sacrificed (Group A). The remaining groups were injected once a day with vehicle (Group B), 1µg/kg body weight (Group C), 10µg/kg body weight (Group D), 100µg/kg body weight (Group E) of GnRH-II, and 80µg/kg body weight (Group F) of hPTH(1-34). • (c) All rats were weighed every fourth day and dosages adjusted for 50g increase in mean group weight. Rats were given alternate subcutaneous injections ofcalcein (30mg/kg) or tetracyclin (30mg/kg) in 2% sodium bicarbonate-saline, respectively to label mineralization surfaces on days 10, 19 and 26, following treatment with drug. Bone mineral density was assessed by dual energy x-ray absorptometry-DEXA). On day 28 serum calcium levels were determined by colorimetric assay using a commercial kit. • (d) Success of OVX was confirmed at necropsy by failure to detect ovarian tissue and by observation of marked atrophy of the uterine horns. Both legs were disarticulated at the hip. […]

## NC(=O)CNC(=O)[C@@H]1CCCN1C(=O)[C@H](Cc1ccc(O)cc1)NC(=O)[C@H](Cc1c[nH]c2ccccc12)NC(=O)CNC(=O)[C@H](Cc1c[nH]cn1)NC(=O)[C@H](CO)NC(=O)[C@H](Cc1c[nH]c2ccccc12)NC(=O)[C@H](Cc1c[nH]cn1)NC(=O)[C@@H]1CCC(=O)N1 [GnRH-II] ([pGlu]HWSHGWYPG-NH2)
10µg/kg daily for 28days
  serum calcium: pronounced hypercalcemia
100µg/kg daily for 28days
  serum calcium: pronounced hypercalcemia
